Consider 63 molecules from PubChem BioAssay AID2685 (National Center for Advancing Translational Sciences (NCATS), 2010).

This test in a line: qHTS Assay for Lipid Storage Modulators in Drosophila S3 Cells.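 For cell number change: cells counted by Cell Tracker Red CMTPX staining in the red channel.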 Conditions: BODIPY lipid droplet fluorescence, 18-24 h; for cell number change: measured here: cell count max response, cells fed with added oleic acid. The essentials:
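Drosophila S3 cells got compounds at several concentrations plus oleic acid (400 uM solution). Laser-scanning cytometry with 488 nm excitation read lipid droplets at 500-530 nm and cells at 575-640 nm. Percent activity was relative to 20 uM Triacsin C.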

Setting [1] is: measured here: lipid fluorescence (Fed channel) AC50, cells fed with added oleic acid.
Setting [2] is: measured here: cell number channel AC50, cells fed with added oleic acid.

The list shows a part of the results. Further columns of the screen follow, without active or inactive calls. Compounds called inactive in the main read-out are mostly missing here. Potencies come from curve fits of mixed quality, noted in brackets.

As for `COC(=O)c1ccc(N(C(=O)CNC(=O)c2ccco2)C(C(=O)NCC2CCCO2)c2ccc(OC)c(OC)c2)cc1` (configuration not stated), the cell number change is 21%. In addition, under setting [1], the AC50 (commonly the concentration giving half of the maximal activity seen) is 29.1 µM [rising, single point].
With `CCCCCCC1CCC(C(=O)N2CCOCC2)CC1` (configuration not stated), the cell number change was determined as 11%. In addition, the AC50 under setting [2] was 0.651 µM [falling, single point].
Take `CCC(C)C(NC(=O)C1CCC(C)CC1)C(=O)NCCc1ccc(S(N)(=O)=O)cc1` (configuration not stated): the cell number change was 4.36%. Further, the AC50 under setting [1] was 0.00411 µM [rising, full curve, poor fit].
Take `CCc1ccccc1NC(=O)c1cc2sccc2n1C`: the cell number change came out at 43.1%. Besides, under setting [2], the AC50 is 29.1 µM [rising, single point]. Also, the AC50 under setting [1] was 18.4 µM [falling, single point].
`Cc1cccn2c(=O)c(/C=N/O)c(Nc3ccccc3F)nc12`: the cell number change was found to be 14.3%. In addition, the AC50 under setting [1] was 6.51 µM [rising, single point].
With `C/C(=N\N1CCN(c2ccc(Cl)cc2)CC1)c1cccc([N+](=O)[O-])c1`, the cell number change turned out to be 17.1%.
Still for that read-out and setting: the same measure for `NS(=O)(=O)c1ccc(CCNC(=O)c2cnc(Cl)c(Cl)c2)cc1`: 4.58%.
For `O=C(COc1ccc(-c2ccccc2)cc1)N1CCN(C(=O)c2cccs2)CC1`, the cell number change is -17.6%. Moreover, the AC50 under setting [1] is 29.1 µM [falling, single point].
Take `Oc1ccc(C[C@@H]2CNC(=S)N2CCCCC2CCCCC2)cc1`: the cell number change is -21.5%.
With `Cc1onc(-c2c(F)cccc2Cl)c1C(=O)OCC(=O)NCc1ccco1`, the cell number change was -0.503%. Besides, under setting [1], the AC50 is 29.1 µM [rising, single point].
Consider `Cc1occc1C(=O)N1CCN(c2ccc([N+](=O)[O-])cc2)CC1`, for which the cell number change was found to be 32.4%.
For `NC(=O)c1c(NC(=O)c2ccc(F)cc2)sc2c1CCC2`, under setting [1], the AC50 is 9.2 µM [falling, single point].
For `Cc1c(Nc2nc(C(F)(F)F)nc3ccccc23)c(=O)n(-c2ccccc2)n1C`, the cell number change is 29.2%. In addition, under setting [2], the AC50 is 6.51 µM [falling, single point].
As to `O=C(Nc1cc(Cl)ccc1N1CCOCC1)c1cc2ccccc2o1`, the cell number change worked out at 16.7%. In addition, under setting [1], the AC50 is 29.1 µM [rising, single point].
Turning to `COc1ccc(CNC(=O)COC(=O)c2c[nH]c(=O)[nH]c2=O)cc1OC`, the cell number change is -0.271%. The AC50 under setting [1] is 29.1 µM [rising, single point].
Turning to `Cc1ccc(-c2nn(-c3ccccc3)cc2CNCc2ccccc2)cc1`, the cell number change is 3.82%.
On to `O=C(C[n+]1ccc(Cc2ccccc2)cc1)Nc1ccccc1`, for which the cell number change is -36%. In addition, under setting [2], the AC50 was 3.66 µM [falling, full curve, poor fit].
For the molecule `O=C(CSc1nnc2ccc(-c3ccc(Br)cc3)nn12)NCC1CCCO1` (configuration not stated), the AC50 under setting [1] is 2.31 µM [rising, single point].
In the case of `CCOC(=O)N1CCN(c2c(NCCc3ccc(OC)c(OC)c3)c(=O)c2=O)CC1`, the AC50 by setting is: under setting [2], 6.51 µM [rising, single point]; under setting [1], 3.26 µM [rising, partial curve].
Regarding `CCCCNC(=S)Nc1ccc(OC)nc1`, the cell number change was -26.1%. In addition, the half-maximal activity concentration (AC50) under setting [2] was 0.651 µM [falling, single point]. Further, under setting [1], the AC50 is 6.51 µM [rising, single point].
Take `Cc1cccc(-n2nc(CC#N)c(C#N)c2N)c1`: the AC50 under setting [1] was 2.59 µM [rising, partial curve].
Consider `CCOc1ccc(OCCCCN(C)C)cc1`, for which the cell number change is -12.4%. Under setting [1], the AC50 was 0.116 µM [falling, full curve].
On to `CCCCCN(C(=O)NC(=O)Nc1cccc(C)c1C)S(C)(=O)=O`, for which, under setting [1], the AC50 is 29.1 µM [rising, single point].
Take `COc1ccc(NC(=O)c2oc3ccccc3c2NC(=O)C2CC2)cc1OC`: the cell number change was -33.7%. Besides, the AC50 under setting [2] is 32.6 µM [falling, single point]. For the same molecule, under setting [1], the AC50 was 6.51 µM [falling, single point].
As to `CCOC(=O)N1CCN(C(=O)CN2C(=O)COc3ccc(C)cc32)CC1`, the AC50 is, setting by setting: under setting [2], 0.184 µM [rising, partial curve, poor fit]; under setting [1], 0.13 µM [rising, full curve, poor fit].
For `Cc1cnc(C(=O)OCC(=O)c2ccc(C)s2)cn1`, the cell number change amounted to 23.2%. The AC50 under setting [1] was 0.00461 µM [rising, full curve, poor fit].
In the case of `COC(=O)c1ccccc1NC(=O)CSc1nnc(-c2cccnc2)n1N`, the cell number change turned out to be 1.92%. In addition, the AC50 under setting [1] was 1 µM [rising, full curve].
Take `CC1(C)Cc2c(sc(NC(=O)c3ccco3)c2C#N)C(C)(C)N1`: the cell number change was -22.9%. Further, under setting [1], the AC50 is 29.1 µM [falling, single point].
Take `O=C1NC(=Nc2ccc(Cl)cc2)SC1Cc1cccc(Cl)c1Cl` (configuration not stated): the cell number change is -34.3%. The AC50 under setting [2] is 20.6 µM [falling, single point]. Moreover, the AC50 under setting [1] is 16.4 µM [falling, single point].
Turning to `O=C(Nc1ccc(F)cc1F)c1cc2ncc(Br)cn2n1`, the cell number change came out at 3.03%. Besides, the AC50 under setting [1] is 29.1 µM [falling, single point].
Regarding `CCCNc1nc(Nc2ccc(C)cc2)nc(N2CCCC2)n1`, the cell number change turned out to be 125%. Under setting [2], the AC50 is 29.1 µM [rising, single point].
With `CCCC1CCC(c2ccc(OCC)cc2)=CC1=O` (configuration not stated), the cell number change turned out to be 43.9%. Moreover, the AC50 under setting [2] is 18.4 µM [rising, single point].
For `COc1ccc(/C(N)=N/OC(=O)CN(C)S(=O)(=O)c2ccccc2)cc1`, the cell number change was 9.61%. In addition, the AC50 under setting [1] is 23.1 µM [rising, partial curve, poor fit].
With `Cc1cc(C)cc(NC(=O)OCCN2CCN(Cc3ccccc3)CCC2=O)c1`, the cell number change came to 2.05%. For the same molecule, under setting [1], the AC50 was 0.92 µM [rising, full curve].
On to `C=CCNc1nc(NCC)nc(N2CCOCC2)n1`, for which the cell number change is -9.17%. Further, the AC50 under setting [1] was 0.00461 µM [falling, full curve, poor fit].
Regarding `CC1Oc2ccccc2C=C1/C=N/Nc1ccc(C(=O)O)cc1` (configuration not stated), the AC50 under setting [2] was 0.58 µM [rising, single point].
Consider `CC(C)(C)[C@H]1C=C(C(N)=O)O[C@@H](OCc2ccc(CO)cc2)C1`, for which the cell number change is -21.2%. The AC50 under setting [1] is 18.4 µM [falling, single point].
With `COc1ccc(CN2CCC(C(=O)c3cccc(Cl)c3)CC2)cc1`, the cell number change was found to be 20.8%. Further, the AC50 under setting [1] was 6.51 µM [rising, single point].
Take `CCOc1cc(NC(=O)c2ccco2)c(OCC)cc1NC(=O)c1ccco1`: the cell number change worked out at 8.97%.
In the case of `OC(Cn1cncn1)(c1ccccc1)c1ccccc1`, the cell number change turned out to be 18.4%. Besides, the AC50 under setting [1] is 1.3 µM [rising, full curve].
Turning to `COc1cc(C(=O)NC2CCN(CC(=O)Nc3cccc(C)c3C)CC2)cc(OC)c1OC`, the cell number change came out at 27.7%. For the same molecule, the AC50 under setting [1] was 29.1 µM [rising, single point].
As to `O=C(c1ccc2c(c1)OCCO2)C1CCN(S(=O)(=O)c2cccc(F)c2)CC1`, the cell number change was -9.39%. Under setting [1], the AC50 is 0.00411 µM [rising, full curve, poor fit].
Consider `CC(=O)c1sc(NC(=O)c2ccc(COc3ccccc3Cl)o2)nc1C`, for which the cell number change is -18.9%.
`COc1cccc(NC(=O)CC2S/C(=N\S(=O)(=O)c3ccccc3)N(c3ccccc3)C2=O)c1` (configuration not stated): the cell number change amounted to 10.2%. In addition, the AC50 under setting [1] is 8.2 µM [rising, partial curve].
For the molecule `Cn1cnc2cc(NC(=O)COc3ccccc3)ccc21`, the cell number change was 10.5%. In addition, the AC50 under setting [1] is 2.51 µM [rising, full curve, poor fit].
Consider `COc1ccc(NC(=O)c2cccc(F)c2)cc1Cl`, for which the cell number change worked out at 11.2%. The AC50 under setting [1] is 23.1 µM [rising, partial curve].
Take `Cc1ccc(/C=N/NC(=O)c2cc3c(s2)CCCC3)o1`: the cell number change is -32.6%. For the same molecule, the AC50 under setting [2] was 0.0231 µM [falling, full curve].
For `c1cnc(SCCOc2cccc3ccccc23)nc1`, the cell number change turned out to be 77.9%. Besides, the AC50 under setting [2] was 20.6 µM [rising, single point].
For `Cc1nc([N+](=O)[O-])cn1CCCCN1C(=O)c2ccccc2C1=O`, the cell number change came out at 21.5%. Moreover, the AC50 under setting [1] was 29.1 µM [rising, single point].
In the case of `Cn1c(NC(=O)c2ccc(F)cc2)nc2ccccc21`, the cell number change was -3.69%.
With `CN(C)c1ccc(S(=O)(=O)N2CCCCC2)cc1NC(=O)C1=NN(c2ccccc2)C(=O)CC1`, the cell number change is -27.2%. In addition, the AC50 under setting [2] was 1.84 µM [falling, full curve, poor fit].
`Fc1ccc2c(-c3cccc(C(F)(F)F)c3)c(-c3ccccc3)ncc2c1`: the cell number change amounted to 1.55%. For the same molecule, the AC50 under setting [2] was 0.164 µM [falling, full curve, poor fit]. For the same molecule, the AC50 under setting [1] is 9.2 µM [falling, single point].
Regarding `COc1ccc([N+](=O)[O-])cc1N(CC(O)CN(CC(C)C)CC(C)C)S(=O)(=O)c1ccccc1` (configuration not stated), the cell number change was -12.3%. Further, under setting [1], the AC50 is 0.651 µM [falling, single point].
For the molecule `O=C(NC(=S)NC1CCSC1=O)c1ccccc1F` (configuration not stated), the cell number change is 28.6%. The AC50 under setting [2] was 2.31 µM [rising, single point]. Further, the AC50 under setting [1] is 29.1 µM [rising, single point].
As for `CCCCNC(=O)C1CCN(S(=O)(=O)c2cnc[nH]2)CC1`, the AC50 under setting [1] was 10.3 µM [falling, partial curve].
Regarding `O=C(NO)c1cc(OCC(F)(F)F)ccc1OCC(F)(F)F`, the cell number change stood at 15.8%. For the same molecule, the AC50 under setting [1] is 29.1 µM [rising, single point].
`COc1ccc(S(=O)(=O)N2CCOCC2)cc1NC(=O)CCc1cc(OC)c(OC)c(OC)c1`: the cell number change came out at 2.14%.
As to `CCn1cc(S(=O)(=O)N2CCN(c3ccc(Cl)cc3)CC2)cn1`, the cell number change is 26.7%. Moreover, the AC50 under setting [1] was 2.91 µM [rising, single point].
On to `COc1ccc(OC)c(CNC(=O)C2CCN(S(C)(=O)=O)CC2)c1`, for which the cell number change is -4.45%. In addition, the AC50 under setting [2] is 0.82 µM [rising, single point].
As to `CCC1(C)NC(=O)N(CC(=O)Nc2sc3c(c2C(N)=O)CCC3)C1=O` (configuration not stated), the cell number change was 5.84%. Moreover, under setting [1], the AC50 is 5.8 µM [rising, full curve].
As for `CCOC(=O)N1CCC(N2CCN(S(=O)(=O)c3ccc(OC)cc3)CC2)CC1`, the cell number change was -6.62%. Also, the AC50 under setting [1] was 0.291 µM [falling, full curve, poor fit].
As to `COc1cc2c(cc1OC)C(C)N(C(=O)c1cccs1)CC2` (configuration not stated), the cell number change is 36.6%. The AC50 under setting [2] is 9.2 µM [rising, partial curve, poor fit].
For the molecule `Cc1noc(C)c1CSc1nnc2ccc3ccccc3n12`, the cell number change was -8.02%. Besides, the AC50 under setting [1] is 1.46 µM [rising, partial curve, poor fit].
